Measured values taken from the supplement of paper PMC10849652.
The other results are listed elsewhere or left out.

Sequences of proteins named here, by UniProt entry; tags and fusion partners are left off. A change or cut given only in a name is not applied to a line headed by its entry.
UniProt Q9NRG7: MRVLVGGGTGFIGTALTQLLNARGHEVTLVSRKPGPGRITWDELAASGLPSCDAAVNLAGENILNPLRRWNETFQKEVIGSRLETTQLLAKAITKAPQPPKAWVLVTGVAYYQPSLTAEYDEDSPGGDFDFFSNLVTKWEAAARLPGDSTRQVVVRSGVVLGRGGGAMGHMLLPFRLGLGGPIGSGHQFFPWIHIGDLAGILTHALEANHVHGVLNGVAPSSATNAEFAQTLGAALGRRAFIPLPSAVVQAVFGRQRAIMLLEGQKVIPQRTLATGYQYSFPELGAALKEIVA
UniProt Q96BY9: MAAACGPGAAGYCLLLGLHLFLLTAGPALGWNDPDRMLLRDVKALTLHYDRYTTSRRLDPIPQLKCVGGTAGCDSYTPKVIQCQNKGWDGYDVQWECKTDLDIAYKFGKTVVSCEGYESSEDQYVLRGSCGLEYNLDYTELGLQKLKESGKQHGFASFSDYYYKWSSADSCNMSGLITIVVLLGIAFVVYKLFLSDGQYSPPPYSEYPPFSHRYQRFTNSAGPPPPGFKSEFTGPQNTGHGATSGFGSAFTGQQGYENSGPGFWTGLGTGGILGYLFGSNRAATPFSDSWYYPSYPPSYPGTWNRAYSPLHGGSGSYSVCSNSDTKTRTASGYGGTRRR
UniProt O95969: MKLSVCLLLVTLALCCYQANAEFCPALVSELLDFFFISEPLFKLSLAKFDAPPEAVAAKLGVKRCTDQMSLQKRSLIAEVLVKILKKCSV
UniProt Q96EU6: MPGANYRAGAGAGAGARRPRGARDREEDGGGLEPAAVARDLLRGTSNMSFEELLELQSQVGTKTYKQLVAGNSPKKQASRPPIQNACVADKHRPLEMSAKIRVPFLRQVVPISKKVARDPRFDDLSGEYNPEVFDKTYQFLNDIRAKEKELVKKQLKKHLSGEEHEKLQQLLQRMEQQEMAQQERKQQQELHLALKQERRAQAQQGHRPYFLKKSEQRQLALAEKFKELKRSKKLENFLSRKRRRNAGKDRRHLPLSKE
UniProt Q13296: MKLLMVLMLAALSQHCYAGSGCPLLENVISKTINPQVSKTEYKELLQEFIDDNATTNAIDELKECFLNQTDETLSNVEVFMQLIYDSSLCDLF
UniProt P35499, whole entry, looked up: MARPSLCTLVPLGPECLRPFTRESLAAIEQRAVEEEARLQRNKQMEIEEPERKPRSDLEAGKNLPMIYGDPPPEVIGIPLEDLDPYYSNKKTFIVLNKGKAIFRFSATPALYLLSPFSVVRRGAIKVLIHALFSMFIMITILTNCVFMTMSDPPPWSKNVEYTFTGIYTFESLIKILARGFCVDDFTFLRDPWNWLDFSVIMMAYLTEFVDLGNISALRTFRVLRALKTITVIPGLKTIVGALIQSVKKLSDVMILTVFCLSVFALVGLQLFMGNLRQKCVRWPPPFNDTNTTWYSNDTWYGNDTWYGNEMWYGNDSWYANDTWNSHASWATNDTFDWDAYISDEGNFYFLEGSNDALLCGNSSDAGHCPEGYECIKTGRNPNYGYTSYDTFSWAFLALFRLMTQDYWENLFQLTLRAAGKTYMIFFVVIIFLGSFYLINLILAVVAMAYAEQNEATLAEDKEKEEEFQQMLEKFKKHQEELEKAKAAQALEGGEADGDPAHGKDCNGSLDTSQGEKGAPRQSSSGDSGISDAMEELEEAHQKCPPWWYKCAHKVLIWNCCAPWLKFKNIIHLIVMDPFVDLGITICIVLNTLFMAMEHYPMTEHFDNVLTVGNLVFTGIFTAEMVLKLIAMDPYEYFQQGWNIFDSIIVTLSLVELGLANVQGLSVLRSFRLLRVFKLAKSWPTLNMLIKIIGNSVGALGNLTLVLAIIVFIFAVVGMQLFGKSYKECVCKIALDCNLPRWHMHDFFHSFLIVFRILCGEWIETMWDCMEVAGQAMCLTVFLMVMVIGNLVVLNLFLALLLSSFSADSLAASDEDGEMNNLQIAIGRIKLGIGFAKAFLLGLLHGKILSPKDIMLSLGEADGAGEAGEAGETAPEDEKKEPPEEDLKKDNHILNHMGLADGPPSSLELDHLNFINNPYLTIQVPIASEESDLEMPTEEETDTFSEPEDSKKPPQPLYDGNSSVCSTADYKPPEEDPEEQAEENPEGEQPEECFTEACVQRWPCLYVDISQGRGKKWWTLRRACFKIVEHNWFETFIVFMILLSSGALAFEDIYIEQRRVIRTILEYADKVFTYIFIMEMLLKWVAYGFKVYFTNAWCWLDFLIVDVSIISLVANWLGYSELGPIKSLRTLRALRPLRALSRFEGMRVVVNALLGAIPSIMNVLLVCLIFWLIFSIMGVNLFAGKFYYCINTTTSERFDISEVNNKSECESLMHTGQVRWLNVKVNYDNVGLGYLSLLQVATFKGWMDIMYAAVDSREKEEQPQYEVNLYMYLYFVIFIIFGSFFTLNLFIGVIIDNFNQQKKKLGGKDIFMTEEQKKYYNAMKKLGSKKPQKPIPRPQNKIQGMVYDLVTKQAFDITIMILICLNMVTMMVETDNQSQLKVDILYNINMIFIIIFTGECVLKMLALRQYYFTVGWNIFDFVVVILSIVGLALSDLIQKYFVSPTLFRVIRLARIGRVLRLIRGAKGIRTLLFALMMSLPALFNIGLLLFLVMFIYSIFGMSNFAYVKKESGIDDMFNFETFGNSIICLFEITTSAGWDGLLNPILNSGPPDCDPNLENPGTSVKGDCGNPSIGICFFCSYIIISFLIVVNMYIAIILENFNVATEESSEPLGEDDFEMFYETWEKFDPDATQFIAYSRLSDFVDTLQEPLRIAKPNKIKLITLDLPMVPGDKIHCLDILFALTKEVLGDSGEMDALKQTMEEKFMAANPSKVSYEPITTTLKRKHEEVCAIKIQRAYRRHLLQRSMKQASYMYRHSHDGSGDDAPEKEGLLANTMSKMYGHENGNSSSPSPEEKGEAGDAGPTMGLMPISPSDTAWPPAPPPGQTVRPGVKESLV
UniProt Q9NQC3: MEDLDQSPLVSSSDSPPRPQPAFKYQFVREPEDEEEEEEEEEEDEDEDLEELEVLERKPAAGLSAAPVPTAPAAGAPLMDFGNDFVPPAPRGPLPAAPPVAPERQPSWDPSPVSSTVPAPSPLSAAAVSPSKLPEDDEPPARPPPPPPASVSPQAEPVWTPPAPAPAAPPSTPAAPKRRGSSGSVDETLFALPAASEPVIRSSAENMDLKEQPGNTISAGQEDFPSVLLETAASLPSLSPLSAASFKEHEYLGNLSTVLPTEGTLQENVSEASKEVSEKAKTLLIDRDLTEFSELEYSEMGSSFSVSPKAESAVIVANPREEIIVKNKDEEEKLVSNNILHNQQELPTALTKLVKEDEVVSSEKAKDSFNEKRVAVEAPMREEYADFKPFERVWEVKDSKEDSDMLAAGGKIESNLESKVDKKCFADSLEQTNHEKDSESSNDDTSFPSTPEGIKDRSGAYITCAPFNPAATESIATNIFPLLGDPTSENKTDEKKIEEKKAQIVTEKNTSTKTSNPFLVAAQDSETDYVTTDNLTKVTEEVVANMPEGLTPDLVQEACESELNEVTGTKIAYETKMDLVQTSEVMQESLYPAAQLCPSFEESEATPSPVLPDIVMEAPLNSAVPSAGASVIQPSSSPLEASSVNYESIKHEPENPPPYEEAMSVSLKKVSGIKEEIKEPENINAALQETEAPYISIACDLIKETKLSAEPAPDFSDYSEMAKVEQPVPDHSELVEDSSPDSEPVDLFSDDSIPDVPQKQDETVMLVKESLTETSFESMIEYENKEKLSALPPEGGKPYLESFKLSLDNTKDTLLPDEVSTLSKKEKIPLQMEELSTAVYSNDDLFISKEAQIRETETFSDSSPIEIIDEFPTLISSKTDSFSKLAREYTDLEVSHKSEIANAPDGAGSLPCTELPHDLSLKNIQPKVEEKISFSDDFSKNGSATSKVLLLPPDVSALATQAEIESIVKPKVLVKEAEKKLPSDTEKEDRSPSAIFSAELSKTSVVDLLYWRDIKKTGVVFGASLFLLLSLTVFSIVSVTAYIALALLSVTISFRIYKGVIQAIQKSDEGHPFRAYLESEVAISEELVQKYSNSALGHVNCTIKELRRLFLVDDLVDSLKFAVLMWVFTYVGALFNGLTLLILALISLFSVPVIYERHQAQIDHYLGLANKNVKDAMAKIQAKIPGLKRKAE
UniProt Q9UPW6: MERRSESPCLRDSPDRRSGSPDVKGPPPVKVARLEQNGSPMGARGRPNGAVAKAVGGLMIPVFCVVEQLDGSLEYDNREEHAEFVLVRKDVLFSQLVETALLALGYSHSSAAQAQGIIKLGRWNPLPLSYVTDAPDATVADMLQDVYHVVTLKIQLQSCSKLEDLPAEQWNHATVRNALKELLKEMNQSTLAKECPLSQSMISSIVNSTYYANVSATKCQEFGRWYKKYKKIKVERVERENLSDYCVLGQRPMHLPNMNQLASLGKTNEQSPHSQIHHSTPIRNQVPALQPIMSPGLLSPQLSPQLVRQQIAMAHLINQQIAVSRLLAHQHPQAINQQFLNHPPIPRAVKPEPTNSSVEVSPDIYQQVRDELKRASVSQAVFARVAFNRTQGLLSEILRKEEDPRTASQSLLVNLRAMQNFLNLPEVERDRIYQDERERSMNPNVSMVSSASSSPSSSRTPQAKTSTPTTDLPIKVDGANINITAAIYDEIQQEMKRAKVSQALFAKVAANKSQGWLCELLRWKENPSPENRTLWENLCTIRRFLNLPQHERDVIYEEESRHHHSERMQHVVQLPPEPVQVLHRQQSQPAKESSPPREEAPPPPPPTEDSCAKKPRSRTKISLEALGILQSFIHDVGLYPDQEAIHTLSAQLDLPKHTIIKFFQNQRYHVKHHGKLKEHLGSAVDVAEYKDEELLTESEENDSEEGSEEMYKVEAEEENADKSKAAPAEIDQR
UniProt O75056, whole entry, looked up: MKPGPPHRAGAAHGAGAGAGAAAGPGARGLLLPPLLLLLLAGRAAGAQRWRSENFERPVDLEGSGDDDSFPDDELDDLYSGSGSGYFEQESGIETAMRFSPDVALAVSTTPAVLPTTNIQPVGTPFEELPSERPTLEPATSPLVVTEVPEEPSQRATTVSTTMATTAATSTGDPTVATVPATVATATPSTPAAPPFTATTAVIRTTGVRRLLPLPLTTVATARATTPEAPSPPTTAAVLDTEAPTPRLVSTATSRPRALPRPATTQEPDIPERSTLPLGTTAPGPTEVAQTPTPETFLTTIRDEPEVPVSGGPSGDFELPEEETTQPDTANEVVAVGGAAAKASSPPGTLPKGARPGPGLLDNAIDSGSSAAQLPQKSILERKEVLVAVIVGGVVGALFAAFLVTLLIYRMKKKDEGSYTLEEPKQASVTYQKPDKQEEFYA
UniProt Q8N9R8: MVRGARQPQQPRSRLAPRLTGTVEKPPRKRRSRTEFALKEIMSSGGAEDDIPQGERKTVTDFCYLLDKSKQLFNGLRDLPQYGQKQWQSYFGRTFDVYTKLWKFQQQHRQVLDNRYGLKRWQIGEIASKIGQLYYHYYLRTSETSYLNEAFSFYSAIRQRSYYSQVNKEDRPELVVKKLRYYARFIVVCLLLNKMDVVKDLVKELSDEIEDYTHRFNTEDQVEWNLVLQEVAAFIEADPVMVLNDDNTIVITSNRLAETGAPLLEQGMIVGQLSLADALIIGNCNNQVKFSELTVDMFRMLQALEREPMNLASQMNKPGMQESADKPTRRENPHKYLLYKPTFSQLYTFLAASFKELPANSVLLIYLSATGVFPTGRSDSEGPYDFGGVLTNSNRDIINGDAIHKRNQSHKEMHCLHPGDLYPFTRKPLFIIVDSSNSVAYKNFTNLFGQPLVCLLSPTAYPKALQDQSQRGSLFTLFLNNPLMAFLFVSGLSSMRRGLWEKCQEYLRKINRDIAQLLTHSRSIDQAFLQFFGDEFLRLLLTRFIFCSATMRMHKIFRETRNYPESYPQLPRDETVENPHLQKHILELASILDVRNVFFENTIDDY
UniProt A6ZKI3: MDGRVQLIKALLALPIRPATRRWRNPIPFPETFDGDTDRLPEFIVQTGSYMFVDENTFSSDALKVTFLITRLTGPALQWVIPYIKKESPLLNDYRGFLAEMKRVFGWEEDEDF
UniProt Q6UWP8: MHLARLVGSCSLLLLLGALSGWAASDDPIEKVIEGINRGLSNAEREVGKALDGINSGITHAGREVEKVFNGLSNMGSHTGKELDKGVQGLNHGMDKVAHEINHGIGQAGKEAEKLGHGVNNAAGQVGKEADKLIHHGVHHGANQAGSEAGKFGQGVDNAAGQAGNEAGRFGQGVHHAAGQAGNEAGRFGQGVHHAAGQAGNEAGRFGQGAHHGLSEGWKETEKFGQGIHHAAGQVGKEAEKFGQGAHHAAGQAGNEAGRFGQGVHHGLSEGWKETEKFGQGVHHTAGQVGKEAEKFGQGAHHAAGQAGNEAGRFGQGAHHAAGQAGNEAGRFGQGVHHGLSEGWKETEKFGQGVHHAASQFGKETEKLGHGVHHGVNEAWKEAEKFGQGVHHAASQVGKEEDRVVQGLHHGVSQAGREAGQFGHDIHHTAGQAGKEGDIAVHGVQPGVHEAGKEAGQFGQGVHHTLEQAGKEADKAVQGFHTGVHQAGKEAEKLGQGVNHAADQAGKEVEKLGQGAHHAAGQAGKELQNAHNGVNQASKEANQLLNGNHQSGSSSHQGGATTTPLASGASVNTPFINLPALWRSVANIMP

Columns and labels:
Assay in all cases: log2 fold change, soluble protein after heating vs DMSO (PISA); higher = thermal stabilisation; K562 cells, 10 uM, 30 min; active = over 0.2 and 3.5 SD of the protein, either way, in both replicates (recomputed)
[1] = compound: CC1=C(C=C(C=C1)NC(=O)C2=CC(=CC=C2)C(C)(C)C#N)NC3=CC4=C(C=C3)N=CN(C4=O)C
Outline: (§1)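 Thermal stability values are relative to control samples and come from duplicates. They are expressed as log2 fold changes. For measurement, K562 cells (2×10^6 cells/mL) received 10 μM compound for 30 min, and aliquots were heated for 3 min over 48°C-58°C, pooled, and extracted at 4°C in PBS with 0.5% NP-40. Soluble protein, the supernatant after 21,000xg for 90 min, was quantified by TMTpro 16plex LC-MS/MS with equalised channel sums.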

[2] = compound: CC1=CC=C(C=C1)SC2=C3C=C(SC3=CN=C2)C(=O)N
Outline: as §1

[3] = compound: CC1=NC(=CC=C1)C2=C(N=C(N2)C(C)(C)C)C3=CC4=NC=CN=C4C=C3
Outline: as §1

Nexturastat A = compound: CCCCN(Cc1ccc(C(=O)NO)cc1)C(=O)Nc1ccccc1 [Nexturastat A]
Outline: as §1

vemurafenib = compound: CCCS(=O)(=O)Nc1ccc(F)c(C(=O)c2c[nH]c3ncc(-c4ccc(Cl)cc4)cc23)c1F [vemurafenib]
Outline: as §1

[4] = compound: CCCS(=O)(=O)Nc1ccc(F)c(C(=O)c2c[nH]c3ncc(Cl)cc23)c1F
Outline: as §1

[5] = compound: CCCc1cc(C)[nH]c(=O)c1CNC(=O)c1cc(-c2ccnc(N3CCN(C)CC3)c2)cc2c1cnn2C(C)C
Outline: as §1

givinostat = compound: CCN(CC)Cc1ccc2cc(COC(=O)Nc3ccc(C(=O)NO)cc3)ccc2c1 [givinostat]
Outline: as §1

volasertib = compound: CC[C@@H]1C(=O)N(C)c2cnc(Nc3ccc(C(=O)N[C@H]4CC[C@H](N5CCN(CC6CC6)CC5)CC4)cc3OC)nc2N1C(C)C [volasertib]
Outline: as §1

[6] = compound: CC[C@H](C)N1C=C(C2=C(C=C(C=C21)C3=CN=C(C=C3)N4CCNCC4)C(=O)NCC5=C(C=C(NC5=O)C)C)C
Outline: as §1

epoxomicin = compound: CC[C@H](C)[C@@H](C(=O)N[C@@H]([C@@H](C)O)C(=O)N[C@@H](CC(C)C)C(=O)[C@]1(CO1)C)NC(=O)[C@H]([C@@H](C)CC)N(C)C(=O)C [epoxomicin]
Outline: as §1

[7] = compound: CCn1cc(-c2ccnc3[nH]c(-c4cccc(CN(C)C)c4)cc23)c(-c2ccc(NC(=O)N(C)C)cc2)n1
Outline: as §1

[8] = compound: CN(C)CC(=O)Nc1ccc2[nH]c(=O)c3ccccc3c2c1
Outline: as §1

[9] = compound: CN1C2=C(C3=C1C(=O)N(N=C3)CC4=CC(=CC=C4)N)SC(=C2)S(=O)C
Outline: as §1

[10] = compound: CN1CCC(CNc2ccc3ncc(-c4cccc(OC(F)(F)F)c4)n3n2)CC1
Outline: as §1

[11] = compound: CC1=C(C=C(C=C1)NC(=O)C2=CC(=CC=C2)N(C)C)NC(=O)C3=CC=C(C=C3)O
Outline: as §1

barasertib = compound: CCN(CCCOc1ccc2c(Nc3cc(CC(=O)Nc4cccc(F)c4)[nH]n3)ncnc2c1)CCOP(=O)(O)O [barasertib]
Outline: as §1

[12] = compound: CC[C@@H]1C(=O)N(C)c2cnc(Nc3ccc(C(=O)NC4CCN(C)CC4)cc3OC)nc2N1C1CCCC1
Outline: as §1

[13] = compound: CCn1c(C(=O)N(C2CC2)C2CC2)cc2c3c(ncn3C)c(Nc3cc(C)n(C)n3)nc21
Outline: as §1

rosiglitazone = compound: CN(CCOC1=CC=C(C=C1)C[C@H]2C(=O)NC(=O)S2)C3=CC=CC=N3 (racemic) [rosiglitazone]
Outline: as §1

Target	log2 fold change [1]	log2 fold change [2]	log2 fold change [3]	log2 fold change (Nexturastat A)	log2 fold change (vemurafenib)	log2 fold change [4]	log2 fold change [5]	log2 fold change (givinostat)	log2 fold change (volasertib)	log2 fold change [6]	log2 fold change (epoxomicin)	log2 fold change [7]	log2 fold change [8]	log2 fold change [9]	log2 fold change [10]	log2 fold change [11]	log2 fold change (barasertib)	log2 fold change [12]	log2 fold change [13]	log2 fold change (rosiglitazone)
SAP30 (UniProt O75446)	inactive: -0.292	inactive: -0.078	inactive: -0.164	inactive: 0.025	inactive: 0.04	inactive: -0.157	inactive: 0.037	inactive: 0.019	inactive: 0.042	inactive: -0.039	inactive: -0.109	inactive: -0.051	inactive: 0.013	inactive: 0.175	inactive: 0.064					
SART3, A0A499FI31	inactive: 0.015	inactive: -0.014	inactive: 0.04	inactive: -0.043	inactive: 0.023	inactive: 0.072	inactive: -0.013	inactive: 0.012	active: -0.557	inactive: 0.061	inactive: 0.065	inactive: -0.017	inactive: 0.017	inactive: -0.056	inactive: -0.211	inactive: -0.05	inactive: 0.022	inactive: -0.235		
RSL24D1 (UniProt Q9UHA3)	inactive: -0.068			inactive: 0.32	inactive: -0.247		inactive: 0.193	inactive: 0.14		inactive: -0.079	inactive: -0.494		inactive: -0.258			inactive: 0.019	inactive: -0.097	inactive: 0.253	inactive: -0.181	inactive: -0.117
SDAD1 (UniProt Q9NVU7)	inactive: -0.067		inactive: -0.014	inactive: 0.309			inactive: -0.081			inactive: -0.065	inactive: -0.107	inactive: 0.188		inactive: 0.179	inactive: -0.124	inactive: -0.016	inactive: 0.056	inactive: 0.04		inactive: 0.01
SDR39U1 (UniProt Q9NRG7)	inactive: 0.894	inactive: 0.532		inactive: -0.038	inactive: 0.206	inactive: -0.153	inactive: 0.755	inactive: 0.232	inactive: 0.24	inactive: -0.047	inactive: -0.047	inactive: 0.092	inactive: -0.112	inactive: -0.069	inactive: -0.037		inactive: -0.097	inactive: 0.35	inactive: -0.022	inactive: -0.024
SARAF (UniProt Q96BY9)	inactive: -0.141	inactive: -0.111		inactive: 0.291	inactive: -0.1	inactive: -0.072			inactive: 0.155		inactive: 0.089	inactive: -0.066	inactive: 0.049	inactive: 0.032	inactive: -0.147		inactive: 0.224	inactive: 0.145		inactive: -0.021
SEC31A (UniProt O94979)	inactive: -0.053	inactive: 0.015	inactive: 0.019	inactive: 0.102	inactive: 0.054	inactive: 0.064	inactive: -0.032	inactive: 0.098	active: -0.354	inactive: 0.021	inactive: 0.034	inactive: 0.018	inactive: 0.046	inactive: 0.051	inactive: -0.11	inactive: -0.052	inactive: 0.052	inactive: -0.035		
SCGB1D2 (UniProt O95969)	inactive: -0.116	inactive: 0.269		inactive: -0.037	inactive: -0.193	inactive: -0.343	inactive: 0.513	inactive: 0.206	inactive: -0.242	inactive: 0.253	inactive: 0.987		inactive: -0.381	inactive: 0.239		inactive: -0.034	inactive: 0.185	inactive: -0.006	inactive: -0.111	inactive: 1.05
RRP36 (UniProt Q96EU6)	inactive: 0.001	inactive: -0.045		inactive: 0.24	inactive: -0.117	inactive: 0.002	inactive: 0.136	inactive: 0	inactive: 0.376	inactive: -0.028	inactive: -0.203	inactive: 0.201	inactive: -0.114	inactive: 0.316	inactive: 0.288	inactive: -0.168	inactive: -0.218	inactive: 0.217		
SCGB2A2 (UniProt Q13296)	inactive: 0.024	inactive: 0.211	inactive: -0.386	inactive: -0.22	inactive: -0.232	inactive: -0.102	inactive: 0.351		inactive: -0.123	inactive: 0.106	inactive: 1.13	inactive: 0.108	inactive: -0.304		inactive: -0.743		inactive: 0.103	inactive: -0.031		inactive: 1.12
SAFB2 (UniProt K7EQU4)			inactive: 0.057	inactive: 0.111						inactive: -0.095	inactive: -0.11						inactive: 0.295			
SCN4A (UniProt P35499)							inactive: -0.1							inactive: 0.104						
RTN4 isoform 5 (UniProt Q9NQC3)		inactive: -0.005	inactive: 0.033	inactive: -0.021	inactive: -0.015	inactive: 0.176		inactive: 0.09	inactive: -0.049	inactive: 0.014	inactive: 0.13	inactive: 0.022	inactive: 0.017	inactive: -0.134	inactive: 0.056	inactive: 0.047		inactive: -0.202	inactive: 0.251	
SATB2 (UniProt Q9UPW6)												inactive: -0.354			inactive: -0.557					
SDC3 (UniProt O75056)	inactive: 0.091			inactive: 0.016	inactive: 0.073					inactive: 0.067	inactive: 0.005	inactive: -0.401	inactive: 0.006	inactive: -0.017	inactive: 0.632			inactive: 0.223		
SCAI isoform 2 (UniProt Q8N9R8)			inactive: 0.064	inactive: 0.129	inactive: -0.171			inactive: 0.006			inactive: 0.201		inactive: 0.181	inactive: 0.067		inactive: 0.031			inactive: -0.041	
RTL8C (UniProt A6ZKI3)		inactive: 0.021	inactive: -0.131	inactive: 0.281	inactive: 0.084	inactive: -0.13			inactive: -0.072		inactive: 0.265	inactive: 0.082	inactive: 0.011	inactive: -0.105	inactive: 0.024	inactive: -0.221		inactive: -0.066		
SBSN (UniProt Q6UWP8)							inactive: 0.367			inactive: 0.058								inactive: 0.703		

Two entries drawn at random from those above:
Target	log2 fold change [1]	log2 fold change [2]	log2 fold change [3]	log2 fold change (Nexturastat A)	log2 fold change (vemurafenib)	log2 fold change [4]	log2 fold change [5]	log2 fold change (givinostat)	log2 fold change (volasertib)	log2 fold change [6]	log2 fold change (epoxomicin)	log2 fold change [7]	log2 fold change [8]	log2 fold change [9]	log2 fold change [10]	log2 fold change [11]	log2 fold change (barasertib)	log2 fold change [12]	log2 fold change [13]	log2 fold change (rosiglitazone)
SCGB1D2 (UniProt O95969)	inactive: -0.116	inactive: 0.269		inactive: -0.037	inactive: -0.193	inactive: -0.343	inactive: 0.513	inactive: 0.206	inactive: -0.242	inactive: 0.253	inactive: 0.987		inactive: -0.381	inactive: 0.239		inactive: -0.034	inactive: 0.185	inactive: -0.006	inactive: -0.111	inactive: 1.05
SCGB2A2 (UniProt Q13296)	inactive: 0.024	inactive: 0.211	inactive: -0.386	inactive: -0.22	inactive: -0.232	inactive: -0.102	inactive: 0.351		inactive: -0.123	inactive: 0.106	inactive: 1.13	inactive: 0.108	inactive: -0.304		inactive: -0.743		inactive: 0.103	inactive: -0.031		inactive: 1.12
